In patent US20070015231A1, “Assay for protein tyrosine phosphatases” (CEPTYR, Inc., priority 2000, published 2007):
Changes are numbered by the printed parent chain. Not every detail of the peptide structures is certain; ends, links or a residue may be inferred. Square brackets hold non-standard residues; d marks the D form. Peptide text beside a SMILES is read from it. * marks the point of attachment. 5FAM = O=C1OC2(c3ccc(O)cc3Oc3cc(O)ccc32)c2ccc(C(=O)*)cc21; pY = N[C@@H](Cc1ccc(OP(=O)(O)O)cc1)C(=O)O

Assays:
PTP1B(D181A) = biological target: T1, PTP1B(D181A) (Homo sapiens, UniProt P18031, D181A); experiment: PTP-1B (DA) binding assay: fluorescence polarization binding of fluorescein-labeled phosphotyrosyl peptides; conditions: for maximum polarization value for bound peptide: DA binding mutant; for Peak Mp: titrated with DA mutant
T1 construct: PTP1B proteins (wild type and mutant forms) comprising amino acids 1-321 were expressed in E. coli; made in house; host or cells: E. coli
T1 sequence (P18031 1-321 D181A): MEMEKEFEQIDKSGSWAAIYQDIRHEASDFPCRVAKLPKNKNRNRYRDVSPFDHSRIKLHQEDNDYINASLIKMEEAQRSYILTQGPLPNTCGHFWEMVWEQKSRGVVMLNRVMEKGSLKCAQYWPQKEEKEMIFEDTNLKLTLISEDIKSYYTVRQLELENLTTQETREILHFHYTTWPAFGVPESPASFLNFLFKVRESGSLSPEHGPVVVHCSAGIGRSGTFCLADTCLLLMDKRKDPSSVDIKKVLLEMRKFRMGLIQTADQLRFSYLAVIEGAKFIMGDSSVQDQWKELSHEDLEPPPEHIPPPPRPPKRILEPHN
Procedure: (§1) Two assay parameters were measured: (1) the dynamic range of the signal (i.e. the difference between polarization values of the bound and the unbound fluorescent substrate) and (2) the midpoint of the transition between bound and unbound that represents the apparent Kd (i.e. affinity) of each binding mutant for each peptide.
(§2) Assays were set up at room temperature in black polypropylene 96 well microtiter plates (Polyfiltronics, Whatman, U. K.) by the sequential addition of 40 μl of Assay Buffer, 40 μl of diluted binding protein and 40 μl of 0.3 nM fluorescein-labeled substrate peptide. After 15 min plates were read in a Criterion Analyst™ (LJL BioSystems, Inc., Sunnyvale, Calif.) in fluorescence polarization detection mode using the parameters listed as follows:
(§3) To obtain values for background fluorescence, assays were set up as above except the fluorescein-labeled substrate was replaced with Assay Buffer. To determine the fluorescence polarization values for the unbound substrate peptide, assays were set up as above except that the 40 μl of diluted binding protein was replaced with Assay Buffer.

PTP1B(C215S) = biological target: T2, PTP1B(C215S) (Homo sapiens, UniProt P18031, C215S); experiment: PTP-1B (CS) binding assay: fluorescence polarization binding of fluorescein-labeled phosphotyrosyl peptides; conditions: for maximum polarization value for the fully bound peptide substrate: CS binding mutant; for Peak mP: 0.1 nM-range fluorescein-labeled peptide titrated with CS mutant
T2 construct: PTP1B proteins (wild type and mutant forms) comprising amino acids 1-321 were expressed in E. coli; made in house; host or cells: E. coli
T2 sequence (P18031 1-321 C215S): T1 sequence (P18031 1-321 D181A) with A181D, C215S
Procedure: as §1, §2, §3

PTP1B [1] = biological target: T3, PTP1B (Rattus norvegicus, UniProt P20417); conditions: EGF receptor Tyr992 hexapeptide substrate; cited from earlier work
T3 sequence (P20417 1-322 limits assumed): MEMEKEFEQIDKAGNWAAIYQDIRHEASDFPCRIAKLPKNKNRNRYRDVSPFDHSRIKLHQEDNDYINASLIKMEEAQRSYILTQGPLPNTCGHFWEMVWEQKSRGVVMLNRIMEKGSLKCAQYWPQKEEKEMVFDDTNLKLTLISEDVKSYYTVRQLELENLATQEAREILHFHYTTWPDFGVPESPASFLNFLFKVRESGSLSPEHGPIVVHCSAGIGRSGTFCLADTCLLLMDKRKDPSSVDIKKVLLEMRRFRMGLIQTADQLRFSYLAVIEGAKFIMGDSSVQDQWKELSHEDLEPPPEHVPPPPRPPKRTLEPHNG

PTP1B [2] = biological target: T4, PTP1B (Homo sapiens, UniProt P18031); experiment: PTP catalytic assay of F-ERP-P dephosphorylation with alternate reaction terminator molecules (FP); type: biochemical; conditions: 300 nM F-ERP-P solution, 1.5 ng/ml PTP1B solution
T4 construct: PTP1B proteins (wild type and mutant forms) comprising amino acids 1-321 were expressed in E. coli; made in house; host or cells: E. coli
T4 sequence (P18031 1-321): T1 sequence (P18031 1-321 D181A) with A181D
Procedure: The ability of each reaction terminator molecule also was assessed in the presence and absence of vanadate (a well known, nonspecific PTP inhibitor).
Assays were set up in black polypropylene plates with 20 μl of 25 mM Tris HCl pH 7.5 and 20 μl of 300 nM F-ERP-P in 25 mM Tris HCl pH 7.5, 1 mM EDTA, 1 mM DTT, 0.25 mg/ml ovalbumin (TEOD buffer). […] Plates were read using the Polarstar instrument from BMG Lab Technologies using the following settings:
As in Example 3, wells were set up to measure background fluorescence to allow proper calculation of mP values and other wells were set up without addition of terminator reagent to assess the minimum polarization value of the unbound fluorescent phosphotyrosyl peptide (F-ERP-P).

Compound | maximum polarization value for bound peptide (PTP1B(D181A)) [mP] | Peak Mp (PTP1B(D181A); Table 2) [Mp] | maximum polarization value for the fully bound peptide substrate (PTP1B(C215S)) [mP] | Peak mP (PTP1B(C215S); Table 1) [mP] | Km (PTP1B [1]) [µM] | time to complete dephosphorylation (PTP1B [2]) [min] | EC50 (PTP1B(D181A); Table 2, midpoint of bound/unbound transition (apparent Kd)) [nM] | EC50 (PTP1B(C215S); Table 1, midpoint of bound/unbound transition (apparent Kd)) [nM]
CC[C@H](C)[C@H](NC(=O)[C@H](CC(=O)O)NC(=O)[C@H](CCCNC(=N)N)NC(=O)[C@@H](NC(=O)c1ccc2c(c1)C(=O)OC21c2ccc(O)cc2Oc2cc(O)ccc21)[C@@H](C)O)C(=O)N[C@@H](Cc1ccc(OP(=O)(O)O)cc1)C(=O)N[C@@H](CCC(=O)O)C(=O)N[C@H](C(=O)N[C@@H](CC(=O)O)C(=O)N[C@@H](Cc1ccc(O)cc1)C(=O)N[C@@H](Cc1ccc(O)cc1)C(=O)N[C@@H](CCCNC(=N)N)C(=O)O)[C@@H](C)O [F-IR-P, T-R-D-1-pY-E-T-D-Y-Y-R] | 132 | 132.3 | 151 | 151.4 |  |  |  | 
CC(C)C[C@H](NC(=O)[C@H](Cc1ccc(OP(=O)(O)O)cc1)NC(=O)[C@H](CCC(=O)O)NC(=O)[C@H](CC(=O)O)NC(=O)[C@H](C)NC(=O)[C@H](CC(=O)O)NC(=O)c1ccc2c(c1)C(=O)OC21c2ccc(O)cc2Oc2cc(O)ccc21)C(N)=O [F-ERP-P, D-A-D-E-pY-L-NH2] (5FAM-DADE[pY]L-NH2) | 269 | 269.0 | 315 | 315.6 | ~3 | ≤ 20 | 1.07 | 0.965
